Assay results from PMC6042963.
Results are given in words; binding and its absence hold for the method and conditions named. In cells and extracts the contact can be indirect. For some assays here: Binding can be weak; no strength is given. Where a sequence is shown, tags or fusion partners need not be part of it.

By UniProt entry, the sequences of proteins in these tests, tags left out. Where a name states a change or a piece, a line headed by the entry shows the natural chain unless it says otherwise.
UniProt Q80WQ6: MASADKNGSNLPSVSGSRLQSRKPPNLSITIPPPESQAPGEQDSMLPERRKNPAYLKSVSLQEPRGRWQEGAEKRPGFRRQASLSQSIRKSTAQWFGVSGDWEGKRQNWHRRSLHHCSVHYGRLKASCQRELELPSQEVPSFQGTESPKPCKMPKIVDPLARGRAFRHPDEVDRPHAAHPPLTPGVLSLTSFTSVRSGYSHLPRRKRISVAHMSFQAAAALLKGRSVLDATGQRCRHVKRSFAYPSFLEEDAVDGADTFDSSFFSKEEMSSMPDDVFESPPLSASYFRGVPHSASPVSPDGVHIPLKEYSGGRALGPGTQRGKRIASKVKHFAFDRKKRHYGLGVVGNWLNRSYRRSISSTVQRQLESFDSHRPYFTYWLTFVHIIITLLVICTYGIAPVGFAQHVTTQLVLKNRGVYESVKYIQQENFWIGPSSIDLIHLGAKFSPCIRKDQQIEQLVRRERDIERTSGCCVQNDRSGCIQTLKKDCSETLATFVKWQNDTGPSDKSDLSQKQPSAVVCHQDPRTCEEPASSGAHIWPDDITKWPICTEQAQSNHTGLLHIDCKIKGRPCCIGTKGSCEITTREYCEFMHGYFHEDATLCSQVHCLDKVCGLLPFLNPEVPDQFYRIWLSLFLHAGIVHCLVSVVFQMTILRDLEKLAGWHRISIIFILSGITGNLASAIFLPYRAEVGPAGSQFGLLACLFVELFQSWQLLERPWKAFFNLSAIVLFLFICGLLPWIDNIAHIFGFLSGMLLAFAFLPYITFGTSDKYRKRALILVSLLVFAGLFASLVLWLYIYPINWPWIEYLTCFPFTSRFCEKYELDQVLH

Assays:
[1] = target: HA-tagged iRhom2 lacking the iRhom homology domain (IRHD) (mouse) (UniProt Q80WQ6); test: co-IP; HEK 293ET transfected with iTAP-FLAG and HA-tagged proteins; 1% Triton X-100, 150 mM NaCl, 50 mM Tris-HCl pH 7.4 lysis; anti-HA magnetic beads; washes with 300 mM NaCl at 4°C; FLAG western blot
[2] = target: HA-tagged iRhom2 mutant lacking all of the cytoplasmic tail (∆Nterm) (mouse); test: as above

B1: human iTAP-FLAG (protein, UniProt Q9BZ67 1-464)
chain: MDGTEGSAGQPGPAERSHRSSVSSVGARAADVLVYLADDTVVPLAVENLPSLSAHELHRAVREVLQLPDIALDVFALWLVSPLLEVQLKPKHQPYKLGRQWPELLLRFTSAPDDDVAMDEPFLQFRRNVFFPKRRELQIHDEEVLRLLYEEAKGNVLAARYPCDVEDCEALGALVCRVQLGPYQPGRPAACDLREKLDSFLPAHLCKRGQSLFAALRGRGARAGPGEQGLLNAYRQVQEVSSDGGCEAALGTHYRAYLLKCHELPFYGCAFFHGEVDKPAQGFLHRGGRKPVSVAISLEGVHVIDSREKHVLLGLRFQELSWDHTSPEEEEPILWLEFDGDSEGTPVNKLLKIYSKQAELMSSLIEYCIELSQAAEPAGPQDSATGSPSDPSSSLAPVQRPKLRRQGSVVSSRIQHLSTIDYVEDGKGIRRVKPKRTTSFFSRQLSLGQGSYTVVQPGDSLEQG
binding [1]: binds | binding [2]: no binding
